Results are given in words; binding and its absence hold for the method and conditions named. Some results given as binding are weak or reduced against the parent protein; the word gives no strength. Where a sequence is shown, tags or fusion partners need not be part of it. Each block holds one molecule with its values, some of them ahead of it.
Experiments:
[1] = target: T1, Vps8 with 3xFLAG tag (CORVET subunit) (yeast, UniProt P39702 1-1274); experiment: FLAG affinity purification followed by SEC; mutant CORVET complexes overproduced in yeast, anti-FLAG M2 affinity gel from lysate, FLAG-peptide elution, Superose 6 Increase; 300 mM NaCl, 20 mM HEPES/NaOH pH 7.4, 1.5 mM MgCl2, 10% glycerol
T1 construct: UniProt P39702 printed for its AlphaFold model
T1 sequence: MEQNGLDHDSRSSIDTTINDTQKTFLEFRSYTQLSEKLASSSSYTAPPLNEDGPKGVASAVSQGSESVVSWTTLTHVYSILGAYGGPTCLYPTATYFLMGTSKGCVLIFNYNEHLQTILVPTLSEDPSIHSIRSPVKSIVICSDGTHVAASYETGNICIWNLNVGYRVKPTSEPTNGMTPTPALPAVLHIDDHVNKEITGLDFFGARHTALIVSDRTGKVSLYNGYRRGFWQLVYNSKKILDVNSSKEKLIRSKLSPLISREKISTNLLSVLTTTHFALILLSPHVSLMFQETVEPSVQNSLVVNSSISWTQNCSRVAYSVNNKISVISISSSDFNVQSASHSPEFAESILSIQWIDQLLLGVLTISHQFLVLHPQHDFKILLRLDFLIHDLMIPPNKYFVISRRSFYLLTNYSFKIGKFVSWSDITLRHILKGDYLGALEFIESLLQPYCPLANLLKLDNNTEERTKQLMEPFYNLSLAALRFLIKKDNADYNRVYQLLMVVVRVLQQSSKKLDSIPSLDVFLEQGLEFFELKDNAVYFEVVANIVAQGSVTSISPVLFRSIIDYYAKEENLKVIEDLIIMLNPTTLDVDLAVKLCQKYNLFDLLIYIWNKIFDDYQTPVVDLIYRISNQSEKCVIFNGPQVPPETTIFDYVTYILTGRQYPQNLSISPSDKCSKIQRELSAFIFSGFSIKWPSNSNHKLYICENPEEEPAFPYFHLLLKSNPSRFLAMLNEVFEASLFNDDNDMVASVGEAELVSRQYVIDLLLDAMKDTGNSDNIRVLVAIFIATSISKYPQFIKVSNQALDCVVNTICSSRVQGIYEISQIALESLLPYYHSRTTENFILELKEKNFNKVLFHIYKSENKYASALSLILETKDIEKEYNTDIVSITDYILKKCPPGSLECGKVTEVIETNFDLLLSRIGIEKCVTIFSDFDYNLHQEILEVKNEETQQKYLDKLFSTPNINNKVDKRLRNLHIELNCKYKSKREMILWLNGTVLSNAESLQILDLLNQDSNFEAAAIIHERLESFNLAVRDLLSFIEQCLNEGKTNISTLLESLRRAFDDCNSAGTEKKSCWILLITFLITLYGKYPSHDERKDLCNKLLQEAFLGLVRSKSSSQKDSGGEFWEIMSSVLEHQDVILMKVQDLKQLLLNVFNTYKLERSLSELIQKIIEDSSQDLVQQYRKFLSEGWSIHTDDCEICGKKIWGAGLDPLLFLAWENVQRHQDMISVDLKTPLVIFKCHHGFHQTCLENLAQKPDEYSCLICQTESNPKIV

By UniProt entry, the sequences of proteins in these tests, tags left out. Where a name states a change or a piece, a line headed by the entry shows the natural chain unless it says otherwise. Residues count along the entry.
UniProt P12868, residues 336-1029: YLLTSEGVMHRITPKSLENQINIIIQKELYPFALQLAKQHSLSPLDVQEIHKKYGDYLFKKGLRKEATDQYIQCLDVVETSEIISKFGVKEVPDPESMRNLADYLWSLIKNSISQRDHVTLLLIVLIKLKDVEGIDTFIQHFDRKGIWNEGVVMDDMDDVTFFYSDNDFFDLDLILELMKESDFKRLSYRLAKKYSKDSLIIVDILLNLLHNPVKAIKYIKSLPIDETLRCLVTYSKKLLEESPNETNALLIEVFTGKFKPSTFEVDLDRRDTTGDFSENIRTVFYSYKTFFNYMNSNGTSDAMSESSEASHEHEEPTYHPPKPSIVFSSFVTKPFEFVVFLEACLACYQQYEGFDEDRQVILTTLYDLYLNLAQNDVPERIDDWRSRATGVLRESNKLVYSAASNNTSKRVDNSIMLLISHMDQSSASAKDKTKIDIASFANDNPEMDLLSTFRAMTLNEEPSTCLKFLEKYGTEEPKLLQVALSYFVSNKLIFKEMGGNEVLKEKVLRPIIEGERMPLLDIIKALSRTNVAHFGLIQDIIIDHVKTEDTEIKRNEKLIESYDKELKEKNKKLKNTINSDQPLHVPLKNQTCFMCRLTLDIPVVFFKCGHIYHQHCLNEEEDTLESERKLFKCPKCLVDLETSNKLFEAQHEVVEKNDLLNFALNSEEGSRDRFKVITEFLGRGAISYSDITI

[2] = target: T2, Vps33 (CORVET and HOPS subunit, SM protein of the SNARE-binding module) (yeast), P20795; experiment: cryo-EM structure; single-particle cryo-EM of the hexameric CORVET co-expressed in yeast and purified by 3xFLAG on Vps8 and SEC; about 0.8 mg/ml; consensus map 4.6 Å, local refinements to 3.8 Å; both purified; conditions: remark: other sources report otherwise
T2 chain: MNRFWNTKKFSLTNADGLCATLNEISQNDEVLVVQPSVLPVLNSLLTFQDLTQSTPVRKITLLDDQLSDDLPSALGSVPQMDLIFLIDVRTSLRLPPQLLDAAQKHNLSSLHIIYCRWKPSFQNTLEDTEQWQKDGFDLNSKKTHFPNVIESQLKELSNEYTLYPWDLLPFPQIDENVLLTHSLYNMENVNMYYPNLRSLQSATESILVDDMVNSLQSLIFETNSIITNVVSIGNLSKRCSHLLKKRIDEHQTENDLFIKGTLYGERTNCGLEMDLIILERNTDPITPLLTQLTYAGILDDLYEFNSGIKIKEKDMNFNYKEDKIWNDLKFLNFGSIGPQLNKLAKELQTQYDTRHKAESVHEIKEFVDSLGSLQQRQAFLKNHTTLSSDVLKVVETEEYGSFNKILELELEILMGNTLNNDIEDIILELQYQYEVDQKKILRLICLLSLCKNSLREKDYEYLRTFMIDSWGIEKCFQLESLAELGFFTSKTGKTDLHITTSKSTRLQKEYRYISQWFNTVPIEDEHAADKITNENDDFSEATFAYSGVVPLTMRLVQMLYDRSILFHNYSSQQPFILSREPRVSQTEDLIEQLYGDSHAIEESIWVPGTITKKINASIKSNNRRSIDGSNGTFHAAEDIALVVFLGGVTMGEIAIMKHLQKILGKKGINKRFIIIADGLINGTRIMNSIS

binding [1]: binds
Molecule: Vps11ΔN (Vps11 lacking the β-propeller, residues 1-335) (from UniProt P12868 336-1029) (domain or fragment)

binding [2]: binds
B1: Vps8 with 3xFLAG tag (CORVET subunit), P39702 1-1274 (protein)
chain: T1 sequence

— paper PMC11187117, “Structure of the endosomal CORVET tethering complex” (Nature Communications, 2024)
